In article PMC10646090:
No constants are given. Whether binding was seen depends on the method and setting. Binding seen in cells or lysates may run through a third protein. A yes stands for co-enrichment or nearness to the bait. Other partners may have been found. Where a sequence is shown, tags or fusion partners need not be part of it.

Protein sequences, listed by entry. Tags and fused reporters are not part of them. Lines headed by an entry give the natural chain unless they say otherwise; changes in a name come on top.
UniProt Q9Z0X1: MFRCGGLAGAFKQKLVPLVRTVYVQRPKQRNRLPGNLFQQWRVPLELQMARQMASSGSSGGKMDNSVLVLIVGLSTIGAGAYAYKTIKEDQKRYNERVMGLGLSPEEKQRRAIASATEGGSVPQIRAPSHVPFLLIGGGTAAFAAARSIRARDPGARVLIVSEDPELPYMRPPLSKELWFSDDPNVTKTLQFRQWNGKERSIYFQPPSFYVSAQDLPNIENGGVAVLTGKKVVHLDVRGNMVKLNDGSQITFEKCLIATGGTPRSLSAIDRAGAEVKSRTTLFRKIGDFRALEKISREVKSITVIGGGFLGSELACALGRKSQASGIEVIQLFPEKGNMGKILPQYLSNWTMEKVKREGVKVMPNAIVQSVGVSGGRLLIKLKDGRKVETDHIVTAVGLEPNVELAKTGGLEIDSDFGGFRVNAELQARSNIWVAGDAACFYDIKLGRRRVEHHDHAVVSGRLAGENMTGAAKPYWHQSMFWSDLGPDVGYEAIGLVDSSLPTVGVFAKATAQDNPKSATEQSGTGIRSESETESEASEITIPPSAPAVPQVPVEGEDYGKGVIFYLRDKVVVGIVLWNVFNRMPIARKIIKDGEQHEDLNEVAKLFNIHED
UniProt P23804: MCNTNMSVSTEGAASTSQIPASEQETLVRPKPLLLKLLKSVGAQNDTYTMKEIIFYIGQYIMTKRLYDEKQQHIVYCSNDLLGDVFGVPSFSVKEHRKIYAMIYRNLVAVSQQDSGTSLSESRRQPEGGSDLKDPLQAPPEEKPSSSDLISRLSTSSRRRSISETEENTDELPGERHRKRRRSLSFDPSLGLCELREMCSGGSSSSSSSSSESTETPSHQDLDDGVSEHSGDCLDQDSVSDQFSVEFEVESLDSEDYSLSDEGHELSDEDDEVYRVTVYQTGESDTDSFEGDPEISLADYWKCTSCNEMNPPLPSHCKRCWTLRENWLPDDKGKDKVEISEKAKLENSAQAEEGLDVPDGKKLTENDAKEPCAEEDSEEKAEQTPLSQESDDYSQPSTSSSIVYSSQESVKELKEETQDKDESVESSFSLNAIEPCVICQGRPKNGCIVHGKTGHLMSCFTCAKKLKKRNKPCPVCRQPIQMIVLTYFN
UniProt O88879: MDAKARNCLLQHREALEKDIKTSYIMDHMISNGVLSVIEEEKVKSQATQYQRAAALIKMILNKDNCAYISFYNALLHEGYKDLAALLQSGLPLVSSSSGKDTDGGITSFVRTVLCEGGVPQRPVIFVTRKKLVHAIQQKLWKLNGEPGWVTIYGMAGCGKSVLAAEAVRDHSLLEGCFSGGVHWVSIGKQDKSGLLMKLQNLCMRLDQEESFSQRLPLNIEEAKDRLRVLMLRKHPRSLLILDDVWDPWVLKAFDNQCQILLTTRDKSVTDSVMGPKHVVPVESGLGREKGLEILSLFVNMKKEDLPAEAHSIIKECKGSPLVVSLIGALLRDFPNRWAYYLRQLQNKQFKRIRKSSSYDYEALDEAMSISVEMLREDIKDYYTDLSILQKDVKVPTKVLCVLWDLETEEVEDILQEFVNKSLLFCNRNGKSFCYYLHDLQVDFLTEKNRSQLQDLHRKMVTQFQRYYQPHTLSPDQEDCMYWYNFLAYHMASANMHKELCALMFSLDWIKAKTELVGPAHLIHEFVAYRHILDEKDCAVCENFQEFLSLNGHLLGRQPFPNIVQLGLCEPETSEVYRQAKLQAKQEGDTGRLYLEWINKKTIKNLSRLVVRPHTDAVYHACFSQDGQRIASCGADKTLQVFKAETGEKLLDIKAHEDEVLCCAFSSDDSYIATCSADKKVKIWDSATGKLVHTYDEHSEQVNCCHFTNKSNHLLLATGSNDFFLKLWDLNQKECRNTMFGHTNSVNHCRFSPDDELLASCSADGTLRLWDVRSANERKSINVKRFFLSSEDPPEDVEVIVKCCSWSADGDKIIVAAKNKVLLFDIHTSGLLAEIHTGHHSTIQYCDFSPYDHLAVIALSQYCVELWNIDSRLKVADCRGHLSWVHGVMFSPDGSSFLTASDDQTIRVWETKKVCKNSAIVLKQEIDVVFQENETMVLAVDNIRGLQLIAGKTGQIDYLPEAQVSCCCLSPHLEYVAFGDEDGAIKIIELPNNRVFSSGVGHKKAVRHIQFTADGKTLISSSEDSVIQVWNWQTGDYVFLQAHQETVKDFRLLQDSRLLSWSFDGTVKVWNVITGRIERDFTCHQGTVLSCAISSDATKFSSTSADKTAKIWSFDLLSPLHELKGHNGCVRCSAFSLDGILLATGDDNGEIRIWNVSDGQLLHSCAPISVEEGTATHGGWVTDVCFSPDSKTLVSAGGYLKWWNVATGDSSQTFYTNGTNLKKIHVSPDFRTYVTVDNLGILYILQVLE
UniProt P17918: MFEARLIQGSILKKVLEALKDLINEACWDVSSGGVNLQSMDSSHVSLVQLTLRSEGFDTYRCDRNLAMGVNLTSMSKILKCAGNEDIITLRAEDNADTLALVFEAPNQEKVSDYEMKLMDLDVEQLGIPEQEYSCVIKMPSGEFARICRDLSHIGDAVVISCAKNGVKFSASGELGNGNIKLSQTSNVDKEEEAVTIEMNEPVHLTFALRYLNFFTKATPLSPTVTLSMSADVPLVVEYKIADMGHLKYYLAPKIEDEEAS
UniProt P11440: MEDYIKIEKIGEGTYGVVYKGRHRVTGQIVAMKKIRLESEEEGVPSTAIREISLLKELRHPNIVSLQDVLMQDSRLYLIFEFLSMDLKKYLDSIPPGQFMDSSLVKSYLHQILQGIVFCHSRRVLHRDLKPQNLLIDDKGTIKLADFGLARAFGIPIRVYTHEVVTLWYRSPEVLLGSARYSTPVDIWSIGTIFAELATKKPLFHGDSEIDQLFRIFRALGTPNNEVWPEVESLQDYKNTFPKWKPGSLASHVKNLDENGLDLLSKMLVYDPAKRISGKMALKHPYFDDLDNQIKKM

T1: mouse LASS2-GFP (from the recombinant mouse adenovirus-expressing LASS2 vector Adv-mLASS2-GFP) (mouse) (UniProt Q924Z4)
T1 sequence: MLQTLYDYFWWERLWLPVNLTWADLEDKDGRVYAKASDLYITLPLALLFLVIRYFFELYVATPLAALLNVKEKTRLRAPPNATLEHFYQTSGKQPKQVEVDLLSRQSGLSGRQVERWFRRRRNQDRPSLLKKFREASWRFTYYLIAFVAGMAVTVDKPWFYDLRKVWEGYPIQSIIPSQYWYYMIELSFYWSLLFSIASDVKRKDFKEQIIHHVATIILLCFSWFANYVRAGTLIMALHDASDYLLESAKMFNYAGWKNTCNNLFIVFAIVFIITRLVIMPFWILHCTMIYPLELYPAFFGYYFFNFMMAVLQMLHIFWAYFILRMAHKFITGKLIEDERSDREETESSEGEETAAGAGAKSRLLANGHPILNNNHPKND

B1: MDMX (endogenous, Hepa1-6 cells) (protein, UniProt O35618 1-489)
chain: MTSHSTSAQCSASDSACRISSEQISQVRPKLQLLKILHAAGAQGEVFTMKEVMHYLGQYIMVKQLYDQQEQHMVYCGGDLLGDLLGCQSFSVKDPSPLYDMLRKNLVTSASINTDAAQTLALAQDHTMDFPSQDRLKHGATEYSNPRKRTEEEDTHTLPTSRHKCRDSRADEDLIEHLSQDETSRLDLDFEEWDVAGLPWWFLGNLRNNCIPKSNGSTDLQTNQDIGTAIVSDTTDDLWFLNETVSEQLGVGIKVEAANSEQTSEVGKTSNKKTVEVGKDDDLEDSRSLSDDTDVELTSEDEWQCTECKKFNSPSKRYCFRCWALRKDWYSDCSKLTHSLSTSNITAIPEKKDNEGIDVPDCRRTISAPVVRPKDGYLKEEKPRFDPCNSVGFLDLAHSSESQEIISSAREQTDIFSEQKAETESMEDFQNVLKPCSLCEKRPRDGNIIHGKTSHLTTCFHCARRLKKSGASCPACKKEIQLVIKVFIA

The molecules below were run against T1, mouse LASS2-GFP (from the recombinant mouse adenovirus-expressing LASS2 vector Adv-mLASS2-GFP) (mouse) (assay: affinity purification with mass spectrometry; Hepa1-6 cells transfected with Adv-GFP or Adv-mLASS2-GFP for 48 h; lysates (IP lysis/wash buffer) incubated 1 h at 4 °C with GFP Nanoselector beads; SDS-PAGE, Coomassie Blue, gel portions digested with trypsin, LC-MS).

binding, binds:
AIFM1 (endogenous, Hepa1-6 cells) (from UniProt Q9Z0X1)
MDM2 (endogenous, Hepa1-6 cells) (from UniProt P23804 1-489)
APAF1 (endogenous, Hepa1-6 cells) (from UniProt O88879 1-1249)
HNRNPK (endogenous, Hepa1-6 cells) (from UniProt P61979 1-463)
PCNA (endogenous, Hepa1-6 cells) (from UniProt P17918 1-261)
CDK1 (endogenous, Hepa1-6 cells) (from UniProt P11440 1-297)
B1
